Measured values as given in paper PMC9351435.
Results are given in words; binding and its absence hold for the method and conditions named. Binding seen in cells or lysates may run through a third protein. Some binding calls cover weakened binding; strength is not graded here. Each block holds one substance with its values, some of them ahead of it.

Protein sequences, listed by entry. Tags and fused reporters are not part of them.
UniProt P46937: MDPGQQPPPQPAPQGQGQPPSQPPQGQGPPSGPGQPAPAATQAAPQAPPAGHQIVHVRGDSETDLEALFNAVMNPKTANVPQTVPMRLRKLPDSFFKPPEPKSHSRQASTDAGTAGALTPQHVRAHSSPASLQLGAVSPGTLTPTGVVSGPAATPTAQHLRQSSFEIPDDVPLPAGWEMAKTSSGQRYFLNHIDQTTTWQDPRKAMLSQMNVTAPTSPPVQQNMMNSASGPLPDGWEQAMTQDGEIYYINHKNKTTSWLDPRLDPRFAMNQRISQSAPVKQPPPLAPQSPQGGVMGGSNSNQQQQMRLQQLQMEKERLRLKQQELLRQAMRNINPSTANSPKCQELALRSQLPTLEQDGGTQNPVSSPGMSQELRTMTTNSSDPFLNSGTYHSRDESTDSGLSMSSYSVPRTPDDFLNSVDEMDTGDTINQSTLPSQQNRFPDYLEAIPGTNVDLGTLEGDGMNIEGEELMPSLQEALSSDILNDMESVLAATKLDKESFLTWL
UniProt Q9GZT9: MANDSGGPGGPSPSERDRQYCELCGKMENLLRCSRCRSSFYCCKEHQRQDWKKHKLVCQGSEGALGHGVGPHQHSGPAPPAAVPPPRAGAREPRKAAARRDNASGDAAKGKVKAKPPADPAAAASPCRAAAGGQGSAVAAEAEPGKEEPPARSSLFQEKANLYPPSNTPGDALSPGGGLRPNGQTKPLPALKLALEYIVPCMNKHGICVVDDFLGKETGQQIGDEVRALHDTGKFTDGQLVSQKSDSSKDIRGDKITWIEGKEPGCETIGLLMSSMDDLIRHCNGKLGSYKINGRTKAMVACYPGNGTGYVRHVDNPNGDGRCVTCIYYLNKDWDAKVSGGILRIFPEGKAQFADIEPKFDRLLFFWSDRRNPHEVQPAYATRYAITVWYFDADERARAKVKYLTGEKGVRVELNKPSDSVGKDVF
UniProt Q16665: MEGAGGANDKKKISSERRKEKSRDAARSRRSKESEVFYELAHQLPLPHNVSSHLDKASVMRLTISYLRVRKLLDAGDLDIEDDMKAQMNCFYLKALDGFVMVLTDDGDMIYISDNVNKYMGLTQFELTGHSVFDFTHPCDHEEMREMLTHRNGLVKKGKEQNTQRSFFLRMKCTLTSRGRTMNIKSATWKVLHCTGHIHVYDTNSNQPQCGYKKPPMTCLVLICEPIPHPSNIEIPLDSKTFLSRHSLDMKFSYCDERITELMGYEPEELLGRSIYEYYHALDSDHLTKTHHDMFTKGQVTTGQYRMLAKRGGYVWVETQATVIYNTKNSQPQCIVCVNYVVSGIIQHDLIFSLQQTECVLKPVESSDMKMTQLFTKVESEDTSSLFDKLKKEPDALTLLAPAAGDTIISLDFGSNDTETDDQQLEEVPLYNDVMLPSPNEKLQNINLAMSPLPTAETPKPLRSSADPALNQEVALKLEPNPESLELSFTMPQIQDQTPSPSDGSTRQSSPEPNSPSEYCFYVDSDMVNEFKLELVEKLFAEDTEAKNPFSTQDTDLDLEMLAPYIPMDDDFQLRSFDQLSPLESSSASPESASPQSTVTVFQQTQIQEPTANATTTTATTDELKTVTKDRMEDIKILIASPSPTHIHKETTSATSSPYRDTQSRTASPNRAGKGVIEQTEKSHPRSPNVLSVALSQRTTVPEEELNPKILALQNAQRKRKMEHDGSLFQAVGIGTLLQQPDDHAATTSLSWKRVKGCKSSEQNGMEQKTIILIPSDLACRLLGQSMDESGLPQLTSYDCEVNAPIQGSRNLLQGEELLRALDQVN
UniProt P40337: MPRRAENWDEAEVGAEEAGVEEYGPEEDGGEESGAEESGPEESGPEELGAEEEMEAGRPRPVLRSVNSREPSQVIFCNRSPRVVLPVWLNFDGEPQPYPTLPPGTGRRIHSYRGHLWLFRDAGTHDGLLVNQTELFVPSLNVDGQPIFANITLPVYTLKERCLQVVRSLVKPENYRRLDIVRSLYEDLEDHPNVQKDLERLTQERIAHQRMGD
UniProt Q9GZV5: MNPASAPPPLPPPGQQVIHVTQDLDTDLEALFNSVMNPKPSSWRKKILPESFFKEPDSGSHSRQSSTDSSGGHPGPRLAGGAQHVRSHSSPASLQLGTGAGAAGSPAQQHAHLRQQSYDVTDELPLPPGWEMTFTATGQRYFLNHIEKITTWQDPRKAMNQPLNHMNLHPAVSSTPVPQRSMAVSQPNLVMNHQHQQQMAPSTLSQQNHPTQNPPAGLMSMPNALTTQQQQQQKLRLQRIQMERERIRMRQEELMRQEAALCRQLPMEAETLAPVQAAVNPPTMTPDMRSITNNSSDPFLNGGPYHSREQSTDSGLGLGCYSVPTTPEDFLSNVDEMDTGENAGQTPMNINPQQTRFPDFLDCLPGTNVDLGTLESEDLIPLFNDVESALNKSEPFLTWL

Columns and labels:
[1] = biological target: Yes-associated protein 1 (YAP1) (human (endogenous in A549 and H1650)) (UniProt P46937); assay: co-IP; IP-Western blot of endogenous proteins from A549 and H1650 lysates; normoxic or hypoxic cells, also after PHD2 siRNA, DMOG or visudyne; control IgG IP
[2] = biological target: prolyl hydroxylase 2 (PHD2) (human (endogenous in A549 and H1650)) (UniProt Q9GZT9); assay: as above
[3] = biological target: HIF1α (human (endogenous in A549 and H1650)) (UniProt Q16665); assay: proximity ligation; PLA on human renal cell carcinoma tissue samples (TMA) against normal kidney
[4] = biological target: von Hippel–Lindau (VHL) protein (human (endogenous in A549 and H1650)) (UniProt P40337); assay: proximity ligation; Duolink PLA on fixed, permeabilised A549 and H1650 cells with pairs of primary antibodies; cells in normoxia, hypoxia (1% O2, 24 h) or treated with DMOG; single-antibody controls
[5] = biological target: prolyl hydroxylase 2 (PHD2) (human (endogenous in A549 and H1650)) (UniProt Q9GZT9); assay: as above
[6] = biological target: HIF1α (human (endogenous in A549 and H1650)) (UniProt Q16665); assay: as above
[7] = biological target: HIF1α (human (endogenous in A549 and H1650)) (UniProt Q16665); assay: proximity ligation; PLA on a human lung tumor tissue microarray (normal lung, adenocarcinoma, squamous cell carcinoma, metastases)
[8] = biological target: von Hippel–Lindau (VHL) protein (human (endogenous in A549 and H1650)) (UniProt P40337); assay: co-IP; IP-Western blot of endogenous proteins from A549 and H1650 lysates; normoxic or hypoxic cells, also after PHD2 siRNA, DMOG or visudyne; control IgG IP
[9] = biological target: HIF1α (human (endogenous in A549 and H1650)) (UniProt Q16665); assay: as above
[10] = biological target: HIF1α (human (endogenous in A549 and H1650)) (UniProt Q16665); assay: proximity ligation; PLA on mouse lung-xenograft tumour tissues

- binding [1]: binds
Substance: HIF1α (from UniProt Q16665 1-826)

- binding [2]: binds weakly
Substance: TAZ (from UniProt Q9GZV5 1-400)

- binding [3]: binds
- binding [4]: binds
- binding [5]: binds
- binding [6]: binds
- binding [7]: binds
- binding [8]: binds
- binding [2]: binds
- binding [9]: binds
- binding [10]: binds
Substance: Yes-associated protein 1 (YAP1) (from UniProt P46937 1-504)

- binding [1]: binds
Substance: von Hippel–Lindau (VHL) protein (from UniProt P40337 1-213)
